The record followed here is article PMC5913607.

Protein sequences, listed by entry. Tags and fused reporters are not part of them.
UniProt Q39255: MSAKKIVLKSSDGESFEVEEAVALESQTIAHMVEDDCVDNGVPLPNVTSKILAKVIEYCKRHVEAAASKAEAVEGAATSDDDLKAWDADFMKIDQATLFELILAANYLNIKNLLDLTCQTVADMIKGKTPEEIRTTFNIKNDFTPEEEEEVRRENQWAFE

No constants are given. Whether binding was seen depends on the method and setting. For part of these data: Binding seen in cells or lysates may run through a third protein. Some entries that bind do so weakly or less than the wild type. Where a sequence is shown, tags or fusion partners need not be part of it.

Experiment [1] addresses T1, His-D3 (full-length Oryza sativa D3) (Oryza sativa) (UniProt Q5VMP0).
T1 sequence: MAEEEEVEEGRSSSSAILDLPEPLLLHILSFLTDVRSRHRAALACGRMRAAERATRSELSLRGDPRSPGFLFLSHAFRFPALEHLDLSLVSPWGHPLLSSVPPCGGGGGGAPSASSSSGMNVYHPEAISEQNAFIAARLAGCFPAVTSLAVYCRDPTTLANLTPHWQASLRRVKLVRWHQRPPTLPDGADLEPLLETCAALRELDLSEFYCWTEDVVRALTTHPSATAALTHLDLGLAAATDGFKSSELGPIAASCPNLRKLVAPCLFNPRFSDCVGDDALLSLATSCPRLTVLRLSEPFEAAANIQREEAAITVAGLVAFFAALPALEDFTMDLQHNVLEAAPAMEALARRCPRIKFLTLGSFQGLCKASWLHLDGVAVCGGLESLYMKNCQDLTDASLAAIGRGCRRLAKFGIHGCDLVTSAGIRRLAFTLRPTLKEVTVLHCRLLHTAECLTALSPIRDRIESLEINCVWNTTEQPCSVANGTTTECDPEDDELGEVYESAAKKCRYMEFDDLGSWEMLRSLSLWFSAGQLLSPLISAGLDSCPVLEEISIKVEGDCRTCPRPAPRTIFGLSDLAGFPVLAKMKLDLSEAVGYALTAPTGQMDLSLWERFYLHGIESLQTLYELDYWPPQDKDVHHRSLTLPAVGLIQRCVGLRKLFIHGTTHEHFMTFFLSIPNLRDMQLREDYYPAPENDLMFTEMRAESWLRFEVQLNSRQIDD
As to the kind of experiment: co-purification; His6-tagged F-box protein co-expressed with ASK1 in sf9 cells; Ni-NTA, then HiTrap Q and Superdex 200 10/300; 20 mM MES pH 6.5, 150 mM NaCl, 5 mM DTT.

The target of experiment [2] is T2, His-MAX2 (full-length Arabidopsis thaliana MAX2) (Arabidopsis thaliana) (UniProt Q9SIM9).
T2 sequence: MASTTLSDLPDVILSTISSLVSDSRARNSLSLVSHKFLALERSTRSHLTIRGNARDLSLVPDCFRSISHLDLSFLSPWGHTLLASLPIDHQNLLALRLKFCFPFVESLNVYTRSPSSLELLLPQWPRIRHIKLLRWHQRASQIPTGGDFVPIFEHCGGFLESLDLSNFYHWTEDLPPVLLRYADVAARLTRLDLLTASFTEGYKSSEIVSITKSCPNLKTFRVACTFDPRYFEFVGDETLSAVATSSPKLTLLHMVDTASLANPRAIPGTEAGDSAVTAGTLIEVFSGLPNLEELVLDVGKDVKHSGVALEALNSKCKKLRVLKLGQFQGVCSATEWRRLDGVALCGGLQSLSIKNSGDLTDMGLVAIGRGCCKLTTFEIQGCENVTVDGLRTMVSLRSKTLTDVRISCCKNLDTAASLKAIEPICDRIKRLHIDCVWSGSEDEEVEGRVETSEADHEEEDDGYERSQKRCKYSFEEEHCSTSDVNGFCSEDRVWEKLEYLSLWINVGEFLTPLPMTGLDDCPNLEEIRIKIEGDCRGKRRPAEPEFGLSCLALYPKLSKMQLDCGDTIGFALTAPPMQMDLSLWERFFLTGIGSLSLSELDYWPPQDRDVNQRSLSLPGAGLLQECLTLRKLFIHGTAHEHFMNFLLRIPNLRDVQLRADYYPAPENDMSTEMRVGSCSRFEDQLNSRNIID
Described as above.

Experiment [3] deals with T3, GFP–MAX2 (Arabidopsis thaliana), Q9SIM9.
T3 chain: T2 sequence
As to the kind of experiment: co-IP; Arabidopsis protoplasts (Col-0 or smxl6 smxl7 smxl8 triple mutant) transformed with HA-AtD14 and GFP–MAX2, pre-treated with 100 uM rac-GR24 for 1 h; IP with anti-GFP agarose in the presence or absence of 100 uM rac-GR24 at 4 °C; anti-HA blot. Conditions: remark: other sources report otherwise.

As to ASK1 (from UniProt Q39255 1-160), the binding entry in experiment [1] and in experiment [2] was “binds” throughout.

B1: HA-AtD14, Q9SQR3 1-267 (protein)
chain: MSQHNILEALNVRVVGTGDRILFLAHGFGTDQSAWHLILPYFTQNYRVVLYDLVCAGSVNPDYFDFNRYTTLDPYVDDLLNIVDSLGIQNCAYVGHSVSAMIGIIASIRRPELFSKLILIGFSPRFLNDEDYHGGFEEGEIEKVFSAMEANYEAWVHGFAPLAVGADVPAAVREFSRTLFNMRPDISLFVSRTVFNSDLRGVLGLVRVPTCVIQTAKDVSVPASVAEYLRSHLGGDTTVETLKTEGHLPQLSAPAQLAQFLRRALPR
B1: the binding entry in experiment [3] is on record as “binds”.
